Results from PMC5829068.
No constants are given. Whether binding was seen depends on the method and setting. Binding seen in cells or lysates may run through a third protein. Some entries that bind do so weakly or less than the wild type.

The chains behind the UniProt entries cited, without tags or fusion partners. Residues count along the entry.
UniProt Q13546: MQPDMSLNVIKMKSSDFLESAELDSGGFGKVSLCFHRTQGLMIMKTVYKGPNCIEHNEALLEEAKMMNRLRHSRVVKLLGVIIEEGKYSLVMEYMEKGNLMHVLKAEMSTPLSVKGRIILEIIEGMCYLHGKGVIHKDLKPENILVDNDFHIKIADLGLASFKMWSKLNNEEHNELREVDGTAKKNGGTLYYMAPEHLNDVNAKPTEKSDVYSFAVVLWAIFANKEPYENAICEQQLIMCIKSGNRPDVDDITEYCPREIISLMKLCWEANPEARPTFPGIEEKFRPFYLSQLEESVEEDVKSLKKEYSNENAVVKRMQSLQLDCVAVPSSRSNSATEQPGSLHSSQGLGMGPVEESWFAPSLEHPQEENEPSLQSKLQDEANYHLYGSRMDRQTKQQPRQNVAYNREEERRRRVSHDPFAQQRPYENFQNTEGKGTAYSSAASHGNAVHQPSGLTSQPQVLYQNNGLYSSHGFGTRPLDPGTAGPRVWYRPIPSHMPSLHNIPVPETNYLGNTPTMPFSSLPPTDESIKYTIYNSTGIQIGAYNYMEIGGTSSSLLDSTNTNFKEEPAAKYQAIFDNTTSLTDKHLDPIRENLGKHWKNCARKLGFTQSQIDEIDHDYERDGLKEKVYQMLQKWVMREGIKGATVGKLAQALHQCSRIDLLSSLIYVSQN
UniProt P02748, residues 22-559: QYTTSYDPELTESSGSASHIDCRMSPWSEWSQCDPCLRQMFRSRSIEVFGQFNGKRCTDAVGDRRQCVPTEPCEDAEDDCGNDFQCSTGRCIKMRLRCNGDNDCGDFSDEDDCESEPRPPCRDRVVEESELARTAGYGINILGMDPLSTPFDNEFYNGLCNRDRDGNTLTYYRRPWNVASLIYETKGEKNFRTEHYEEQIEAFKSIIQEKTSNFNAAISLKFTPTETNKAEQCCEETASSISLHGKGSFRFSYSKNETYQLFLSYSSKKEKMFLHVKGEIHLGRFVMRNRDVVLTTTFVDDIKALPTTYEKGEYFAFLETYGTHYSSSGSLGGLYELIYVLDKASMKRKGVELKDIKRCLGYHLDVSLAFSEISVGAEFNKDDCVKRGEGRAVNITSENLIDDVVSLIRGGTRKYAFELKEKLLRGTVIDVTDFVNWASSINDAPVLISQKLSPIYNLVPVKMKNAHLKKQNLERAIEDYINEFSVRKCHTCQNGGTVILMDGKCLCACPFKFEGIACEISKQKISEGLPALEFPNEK
UniProt Q9Y572: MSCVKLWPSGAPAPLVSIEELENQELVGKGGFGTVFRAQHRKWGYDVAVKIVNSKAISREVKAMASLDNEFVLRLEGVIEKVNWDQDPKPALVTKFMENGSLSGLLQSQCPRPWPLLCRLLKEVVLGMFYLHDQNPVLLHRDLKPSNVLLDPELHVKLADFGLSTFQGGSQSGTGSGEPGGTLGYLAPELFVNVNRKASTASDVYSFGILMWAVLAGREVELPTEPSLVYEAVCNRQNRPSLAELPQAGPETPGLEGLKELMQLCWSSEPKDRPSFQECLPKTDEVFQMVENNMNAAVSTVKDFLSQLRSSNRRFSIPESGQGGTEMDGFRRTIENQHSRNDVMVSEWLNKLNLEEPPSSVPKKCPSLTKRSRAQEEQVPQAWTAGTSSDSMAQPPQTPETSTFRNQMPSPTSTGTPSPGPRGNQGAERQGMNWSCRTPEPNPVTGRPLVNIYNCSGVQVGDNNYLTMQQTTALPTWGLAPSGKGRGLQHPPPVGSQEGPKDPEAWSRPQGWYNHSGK

Experiments:
[1] = target: receptor-interacting protein kinase 1 (RIPK1) (human (endogenous in K562)) (UniProt Q13546); assay: condition: only cells treated with HIS or untreated (no active complement); FRET or BRET; as a3, but cells treated with HIS or untreated control cells
[2] = target: receptor-interacting protein kinase 1 (RIPK1) (human (endogenous in K562)) (UniProt Q13546); assay: co-IP; anti-RIPK1 antibody on Protein-A/G agarose beads, 1 h at 4°C; lysates (0.2% NP-40, 20 mM Tris-HCl pH 7.5, 150 mM NaCl, 1 mM EDTA, 10% glycerol) of Flag-RIPK3 K562 cells treated with a sublytic dose of antibody and complement (NHS) for 1-10 min at 37°C; Western blot with anti-Flag
complement C9 (human) = complement C9 (human) (UniProt P02748); assay: co-IP; anti-C9 antibody on Protein-A/G agarose beads; lysates (100 mM Tris pH 7.5, 0.77% Triton X-100, 10 mM EDTA) of K562 cells treated for 10 min with sublytic antibody and complement (NHS); Western blot with anti-C9 and anti-MLKL

Row | binding [1] | binding [2] | binding (complement C9 (human)) | Molecule
1 | no binding | binds |  | Flag-tagged receptor-interacting protein kinase 3 (Flag-RIPK3) (from UniProt Q9Y572 1-518)
2 |  |  | binds | mixed lineage kinase domain-like protein (MLKL) (protein, UniProt Q8NB16 1-471) MENLKHIITLGQVIHKRCEEMKYCKKQCRRLGHRVLGLIKPLEMLQDQGKRSVPSEKLTTAMNRFKAALEEANGEIEKFSNRSNICRFLTASQDKILFKDVNRKLSDVWKELSLLLQVEQRMPVSPISQGASWAQEDQQDADEDRRAFQMLRRDNEKIEASLRRLEINMKEIKETLRQYLPPKCMQEIPQEQIKEIKKEQLSGSPWILLRENEVSTLYKGEYHRAPVAIKVFKKLQAGSIAIVRQTFNKEIKTMKKFESPNILRIFGICIDETVTPPQFSIVMEYCELGTLRELLDREKDLTLGKRMVLVLGAARGLYRLHHSEAPELHGKIRSSNFLVTQGYQVKLAGFELRKTQTSMSLGTTREKTDRVKSTAYLSPQELEDVFYQYDVKSEIYSFGIVLWEIATGDIPFQGCNSEKIRKLVAVKRQQEPLGEDCPSELREIIDECRAHDPSVRPSVDEILKKLSTFSK
